PubChem BioAssay AID1259254, NCATS – 2017
Screen: 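Finding genes that stop cells copying their DNA twice in one cycle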 (primary screen). Cell system: human HCT116 colorectal cancer cells. Reagents: single siRNA against human genes. Timing: 3 days. Measurement: 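Nuclei stained with Hoechst and imaged; cell-cycle phase assigned by DNA content; G2 share scaled per plate, non-targeting siRNA 0%, GMNN siRNA 100%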. Scale: G2 robust z-score and G2 cells, % of GMNN control: higher = more G2 cells, more excess DNA replication. Call rule: 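An siRNA counts as active if its G2 robust z-score lies at least 5 MADs above the screen median; here such calls match roughly 38% of GMNN control or more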.
Shown is an unselected part of about 59,000 deposited reagents. About 1,550 of them (2.6%) count as active. 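G2 share is only a proxy for re-replication; each gene was hit by three separate siRNAs, and active genes were retested.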 The numbers tell different reagents against one gene apart. Further read-outs or replicates are left out here. Reagent sequences are not shown. Not given: the amount of reagent.

With knock-down of SAMD15 (GeneID 161394) #1, the screen gave G2 robust z-score 5; G2 cells, % of GMNN control 38.1; inactive. SAMD15 (GeneID 161394) #2 gave G2 robust z-score -0.862; G2 cells, % of GMNN control -3.1; inactive. Depletion of SAMD15 (GeneID 161394) #3 resulted in: G2 robust z-score 2.48; G2 cells, % of GMNN control 20.4; inactive. FYCO1 (GeneID 79443) #1 gave G2 robust z-score -0.298; G2 cells, % of GMNN control 0.871; inactive. Against FYCO1 (GeneID 79443) #2, the entry reads G2 robust z-score 1.38; G2 cells, % of GMNN control 12.7; inactive. Against FYCO1 (GeneID 79443) #3, the entry reads G2 robust z-score 0.799; G2 cells, % of GMNN control 8.59; inactive.

Laid out differently: 2 of the entries above
{"target":"FYCO1 (GeneID 79443)","reagent no.":2,"G2 robust z-score":1.38,"G2 cells, % of GMNN control":12.7,"Call":"inactive"}
{"target":"FYCO1 (GeneID 79443)","reagent no.":3,"G2 robust z-score":0.799,"G2 cells, % of GMNN control":8.59,"Call":"inactive"}

Further entries follow:
WDR25 (GeneID 79446) #1 gave G2 robust z-score 4.63; G2 cells, % of GMNN control 35.5; inactive. With knock-down of WDR25 (GeneID 79446) #2 the results were G2 robust z-score -0.0348; G2 cells, % of GMNN control 2.72; inactive. Against WDR25 (GeneID 79446) #3 the deposit lists G2 robust z-score -0.613; G2 cells, % of GMNN control -1.34; inactive. Silencing of KRT6C (GeneID 286887) #1 resulted in: G2 robust z-score 2.17; G2 cells, % of GMNN control 18.2; inactive. KRT6C (GeneID 286887) #2 gave G2 robust z-score 0.265; G2 cells, % of GMNN control 4.83; inactive. For KRT6C (GeneID 286887) #3, the values are G2 robust z-score 0.00332; G2 cells, % of GMNN control 2.99; inactive.
